These are yes or no findings as the source states them, for the method shown. Binding seen in cells or lysates may run through a third protein. Binding calls can cover weak binding; strength is not graded here. For part of these data: Sequences can lack the tags named with a protein.
Key:
[1] = biological target: T1, GFP-tagged PP2A PR72 subunit (UniProt Q06190); test: co-IP; GFP-trapping of GFP-tagged B-type subunits from transfected HEK293T cells; anti-PP2A C immunoblot of the retrieved complexes
T1 sequence: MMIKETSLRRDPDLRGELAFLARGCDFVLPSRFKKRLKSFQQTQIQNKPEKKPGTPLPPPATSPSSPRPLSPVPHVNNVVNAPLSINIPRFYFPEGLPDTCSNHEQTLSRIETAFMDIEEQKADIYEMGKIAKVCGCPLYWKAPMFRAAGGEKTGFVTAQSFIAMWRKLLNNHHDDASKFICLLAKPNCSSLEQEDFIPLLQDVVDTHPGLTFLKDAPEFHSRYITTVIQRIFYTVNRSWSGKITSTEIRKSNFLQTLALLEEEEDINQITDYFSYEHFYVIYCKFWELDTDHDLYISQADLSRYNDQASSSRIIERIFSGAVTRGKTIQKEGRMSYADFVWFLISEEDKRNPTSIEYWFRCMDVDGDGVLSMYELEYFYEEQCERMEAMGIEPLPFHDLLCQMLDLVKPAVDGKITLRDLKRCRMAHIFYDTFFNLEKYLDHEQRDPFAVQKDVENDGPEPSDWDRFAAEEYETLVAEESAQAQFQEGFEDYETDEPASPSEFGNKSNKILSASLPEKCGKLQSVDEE

By UniProt entry, the sequences of proteins in these tests, tags left out. Where a name states a change or a piece, a line headed by the entry shows the natural chain unless it says otherwise.
UniProt Q15172: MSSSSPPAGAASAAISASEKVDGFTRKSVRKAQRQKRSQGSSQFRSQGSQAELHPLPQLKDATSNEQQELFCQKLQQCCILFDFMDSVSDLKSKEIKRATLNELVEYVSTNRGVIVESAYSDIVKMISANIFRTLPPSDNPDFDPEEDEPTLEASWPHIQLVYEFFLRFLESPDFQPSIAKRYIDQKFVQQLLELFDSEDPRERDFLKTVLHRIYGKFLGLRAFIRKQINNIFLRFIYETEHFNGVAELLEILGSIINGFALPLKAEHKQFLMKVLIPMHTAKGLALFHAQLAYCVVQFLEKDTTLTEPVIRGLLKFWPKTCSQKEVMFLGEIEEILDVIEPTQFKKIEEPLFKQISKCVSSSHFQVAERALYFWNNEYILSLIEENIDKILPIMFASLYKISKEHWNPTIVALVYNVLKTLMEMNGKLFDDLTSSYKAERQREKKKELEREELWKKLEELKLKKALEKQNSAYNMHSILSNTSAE
UniProt Q9Y3Z3: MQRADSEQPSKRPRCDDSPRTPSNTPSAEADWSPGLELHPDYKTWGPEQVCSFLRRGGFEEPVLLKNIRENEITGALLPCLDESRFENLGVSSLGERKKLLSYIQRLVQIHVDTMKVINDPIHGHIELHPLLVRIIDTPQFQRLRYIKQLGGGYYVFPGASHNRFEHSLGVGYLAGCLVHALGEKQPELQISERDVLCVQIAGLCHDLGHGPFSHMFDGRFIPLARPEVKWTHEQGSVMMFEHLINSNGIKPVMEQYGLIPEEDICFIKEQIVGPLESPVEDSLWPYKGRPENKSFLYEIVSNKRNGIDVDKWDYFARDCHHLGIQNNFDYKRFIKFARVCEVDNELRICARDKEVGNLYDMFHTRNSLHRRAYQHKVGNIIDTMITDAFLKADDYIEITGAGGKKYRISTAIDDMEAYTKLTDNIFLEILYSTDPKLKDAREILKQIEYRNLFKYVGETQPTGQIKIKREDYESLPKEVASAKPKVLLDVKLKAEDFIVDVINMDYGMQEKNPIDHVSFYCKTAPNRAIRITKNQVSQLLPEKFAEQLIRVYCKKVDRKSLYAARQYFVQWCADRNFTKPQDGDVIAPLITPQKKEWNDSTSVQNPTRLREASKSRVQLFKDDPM
UniProt P67775: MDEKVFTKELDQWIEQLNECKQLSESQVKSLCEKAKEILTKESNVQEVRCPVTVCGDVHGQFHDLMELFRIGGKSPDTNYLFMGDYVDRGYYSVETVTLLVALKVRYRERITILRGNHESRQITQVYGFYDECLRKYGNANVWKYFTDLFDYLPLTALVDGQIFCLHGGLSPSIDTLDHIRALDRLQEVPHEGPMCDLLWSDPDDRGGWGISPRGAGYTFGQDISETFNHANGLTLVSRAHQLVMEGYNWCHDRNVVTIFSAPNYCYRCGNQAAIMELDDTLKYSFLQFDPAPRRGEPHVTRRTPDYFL

[2] = biological target: GFP-tagged PP2A B56α subunit (UniProt Q15172); test: as above
SAMHD1 T592A (human) = SAMHD1 T592A (human) (UniProt Q9Y3Z3); test: co-IP
SAMHD1 R451E (human) = SAMHD1 R451E (human) (UniProt Q9Y3Z3); test: co-IP
[3] = biological target: N-terminally FLAG-tagged SAMHD1 (human, wild type) (human) (UniProt Q9Y3Z3); test: co-IP
SAMHD1 T592E (human) = SAMHD1 T592E (human) (UniProt Q9Y3Z3); test: co-IP

binding [1]: binds | binding [2]: binds | binding (SAMHD1 T592A (human)): binds | binding (SAMHD1 R451E (human)): binds | binding [3]: binds | binding (SAMHD1 T592E (human)): binds
Substance: PP2A C subunit (from UniProt P67775) (enzyme)

From article PMC5993806
